“And” between values parts separate entries of the source, which are not always exact repeats. Identical values can stand only once. The whole screen tested about 400,000 compounds, of which about 5,500 (1.4%) were called active. This list was built around the results that the source calls inconclusive (neither active nor inactive); the mix of calls is not that of the screen. The call rests on the fitted dose curve; in most records, active means well fitted cell-killing curve with a large enough effect; inconclusive means small, poorly fitted or top-dose-only effect, or effect the other way; inactive means flat fitted curve, though single readings scatter. A potency beside an inconclusive call is a rough fit, not a confirmed value.
Assay: qHTS assay for MDR1-selective chemotherapeutics: Primary screen using the parental adenocarcinoma cell KB-3-1; further: nearly all actives have a fitted effect of over 60% in size
Details: KB-3-1 viability, CellTiter-Glo ATP luminescence, 72 h; activity change, negative = cytotoxic: at 46.1 µM (top of the series)
Procedure, shortened: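 Screening of KB-3-1 cells (DMEM, 10% FBS, phenol-red free) ran from lowest to highest compound concentration; after 72 h at 37 °C viability was read luminescently and curves fitted.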
In the case of `C=CS(=O)(=O)N(Cc1ccccc1Br)[C@H](CO)Cc1ccccc1`, the Potency is reported as inconclusive: 25.9 µM [cytotoxic, single point] and inconclusive: 29.1 µM [cytotoxic, single point].
With `COc1ccc(CN(C(=O)Cn2nnc(-c3ccc(C)o3)n2)C(C(=O)NCC2CCCO2)c2ccco2)cc1` (stereo not drawn) the activity change, negative = cytotoxic was inconclusive: 30.2%.
For `COc1cccc(C2c3cc4c(cc3OC(N3CCCC3)C2C)OCO4)c1O` (stereo not drawn), the Potency was active: 20.6 µM.
With `COc1cccc(C(=O)Nc2ccc3nc4n(c(=O)c3c2)CCCCC4)c1` the Potency was inconclusive: 25.9 µM [cytotoxic, single point].
For `CCCCn1c(CNC(=O)C23CC4CC(CC(C4)C2)C3)nnc1SC(C)CC` (stereo not drawn), the Potency was inconclusive: 29.1 µM [cytotoxic, single point].
In the case of `CC(C)(C)NC(=O)NCC1CCCC1NC(=O)NC(C)(C)C` (stereo not drawn), the “activity change, negative = cytotoxic” value is reported as inactive: 0%.
For `Cc1c(-c2ccc(Cl)cc2)oc(=O)c2c(N)n(-c3ccccc3)nc12`, the Potency was inconclusive: 18.4 µM [cytotoxic, single point].
With `COc1ccc(C)cc1S(=O)(=O)N(C)CC(=O)N1CCCC1` the “activity change, negative = cytotoxic” value was inactive: 18.4%.
In the case of `CCOc1ccc(-c2nc(C(N)=O)c3c(n2)n(-c2ccc4c(c2)OCO4)c(=O)n3CC)cc1`, the “activity change, negative = cytotoxic” value is reported as inactive: -7.54%.
In the case of `CCc1cc2c(=O)n(C(C)C(=O)OC3CCCCC3)cnc2s1` (stereo not drawn), the “activity change, negative = cytotoxic” value is reported as inactive: -12.3%.
With `CCC(C)C(NC(=O)C(Cc1ccc(O)cc1)NC(=O)OCc1ccccc1)C(=O)OC` (stereo not drawn) the “activity change, negative = cytotoxic” value was inactive: 5.05%.
In the case of `CNc1nc(N)c([N+](=O)[O-])c(NCc2ccccc2)n1`, the “activity change, negative = cytotoxic” value is reported as inactive: -3.8%.
With `CCCc1c(C(=O)Nc2ccc(N3CCOCC3)cc2)cnn1-c1ccccc1` the “activity change, negative = cytotoxic” value was inactive: -5.01%.
With `CCOc1cc(/C=C2/C(=N)N3N=C(CC)SC3=NC2=O)ccc1OC(=O)c1ccco1` the Potency was inconclusive: 14.6 µM [rising, partial curve].
In the case of `O=C(Nc1ccc(Br)cn1)c1ccc(Cl)s1`, the Potency is reported as inconclusive: 14.6 µM [rising, partial curve, poor fit].
With `COc1ccccc1CCNCc1ccc(OC)c(OCc2ccccc2)c1` the Potency was inconclusive: 29.1 µM [cytotoxic, single point].
For `CC(=O)Nc1nn(C)c2nc3cc(C)ccc3cc12`, the “activity change, negative = cytotoxic” value was inactive: 5.44%.
For `Cc1ccc(CN(c2ccc(C(=O)Nc3cccnc3)cc2)S(C)(=O)=O)cc1`, the Potency was inconclusive: 20.6 µM [cytotoxic, single point].
With `COc1ccc(-c2ccc(-c3nc4ccc(C)cn4c3NC3CCCCC3)cc2OC)cc1` the Potency was inconclusive: 18.4 µM [cytotoxic, single point] and inconclusive: 29.1 µM [cytotoxic, single point].
In the case of `O=C(Nc1cccc(S(=O)(=O)C(F)F)c1)c1ccc(S(=O)(=O)N2CCCCC2)cc1`, the Potency is reported as inconclusive: 20.6 µM [cytotoxic, single point].
In the case of `CCc1ccc(CNC(=O)c2cnc(N3CCCCC3)c3ccccc23)cc1`, the “activity change, negative = cytotoxic” value is reported as inactive: -29.2%.
With `Cc1nc2c3cc(F)ccc3n(Cc3ccc(F)cc3)c2s1` the Potency was inconclusive: 29.1 µM [cytotoxic, single point].
For `O=C1C=CC2C3C(=O)N(c4ccccc4)C(=O)C3C1N2Cc1ccccc1` (stereo not drawn), the Potency was inconclusive: 29.1 µM [cytotoxic, single point].
With `COCCn1c(=NC(=O)/C=C/c2cccs2)sc2cc(NC(C)=O)ccc21` the “activity change, negative = cytotoxic” value was inactive: 0.801%.
With `CC(=O)Nc1ccc2nc(NS(=O)(=O)c3ccc(C)cc3)sc2c1` the Potency was inconclusive: 29.1 µM [rising, single point].
For `CCCCn1c(N)c(N(CC)C(=O)CSc2nnc(-c3ccco3)n2CC)c(=O)[nH]c1=O`, the Potency was inconclusive: 29.1 µM [rising, single point].
In the case of `COC(=O)CSc1nc(N)c(C#N)c(-c2ccc(O)cc2)c1C#N`, the Potency is reported as inconclusive: 16.4 µM [cytotoxic, single point].
For `Cc1cccc(N2C(=O)CN(Cc3sccc3C)C2=S)c1`, the Potency was inconclusive: 29.1 µM [cytotoxic, single point].
With `CC(=O)NC(NC(=S)Nc1ccc(N=Nc2ccccc2)cc1)C(Cl)(Cl)Cl` (stereo not drawn) the Potency was inconclusive: 29.1 µM [cytotoxic, single point].
With `COc1ccc(NC(=O)Nc2ccc(F)cc2F)c(C)c1` the “activity change, negative = cytotoxic” value was inactive: -1.99%.
With `COc1ccccc1N(CC(O)COc1c(C)cc(C)cc1C)S(=O)(=O)c1ccccc1` (stereo not drawn) the Potency was inconclusive: 16.4 µM [cytotoxic, single point].
With `CN(C(=O)COC(=O)c1ccccc1NCc1ccco1)c1c(N)n(Cc2ccccc2)c(=O)[nH]c1=O` the Potency was inconclusive: 29.1 µM [cytotoxic, single point].
With `CCN(CC)S(=O)(=O)c1ccc(Cl)c(C(=O)N2CCc3ccccc32)c1` the Potency was inconclusive: 5.17 µM [cytotoxic, full curve, poor fit].
With `CCOc1cc(NC(=S)NCCCOC)c(OCC)cc1NC(=O)c1cccs1` the “activity change, negative = cytotoxic” value was inactive: 5.35%.
For `CC(=O)Nc1ccc(Nc2c3ccccc3nc3ccccc23)cc1`, the Potency was active: 4.61 µM.
In the case of `c1coc(CNc2ncnc3c2[nH]c2ccccc23)c1`, the Potency is reported as inconclusive: 6.51 µM [cytotoxic, partial curve, poor fit].
In the case of `COc1cc(NS(=O)(=O)c2ccc(N/C=C(\C#N)c3nc4cc(Cl)ccc4o3)cc2)nc(OC)n1`, the Potency is reported as inconclusive: 29.1 µM [cytotoxic, single point].
For `O=C(Nc1nc2ccccc2[nH]1)c1ccccc1OC(F)F`, the Potency was inconclusive: 16.4 µM [cytotoxic, single point].
With `COc1cc2ncnc(NCc3cccs3)c2cc1OC` the Potency was inconclusive: 10.3 µM [cytotoxic, partial curve].
With `O=C(CN1C(=O)CC(c2ccco2)Sc2ccccc21)Nc1cccc(C(F)(F)F)c1` (stereo not drawn) the Potency was inconclusive: 29.1 µM [cytotoxic, single point].
For `C/C(=N\Nc1nc2ccccc2[nH]1)c1ccc(Cl)s1`, the Potency was inconclusive: 20.6 µM [cytotoxic, partial curve].
For `Cc1nnsc1C(=O)Nc1cccc(Cl)c1`, the Potency was inconclusive: 16.4 µM [cytotoxic, single point].
For `O=C1c2ccccc2C(=O)N1CCCCSc1nc2ccccc2c(=O)n1CCCN1CCOCC1`, the Potency was inconclusive: 29.1 µM [rising, single point].

Source: PubChem BioAssay AID1347075 (National Center for Advancing Translational Sciences (NCATS), 2019)
On the % scale 0 is the no-effect control and ±100 the full control effect; potency means the concentration at half of the fitted maximal effect.
